Laboratory results from patent publication US7795267B2, “Bicyclic piperazine compound having TGR23 antagonistic activity” (Takeda Pharmaceutical Company Limited, priority 2003, dated 2010).
Structures can show the parent of a compound that is named as a salt. Some results were stated once for a whole list of compounds, not compound by compound.

Legend:
TGR23-2 [1] = biological target: T1, TGR23-2 (Homo sapiens, UniProt Q6W5P4, N107I/Q344R); test: Binding inhibitory test: Cy-5 labeled TGR23 ligand binding to CHO cells expressing TGR23-2 (FMAT)
T1 construct: expressed in transfected cells; host or cells: CHO cells
T1 sequence (Q6W5P4 1-371 N107I/Q344R): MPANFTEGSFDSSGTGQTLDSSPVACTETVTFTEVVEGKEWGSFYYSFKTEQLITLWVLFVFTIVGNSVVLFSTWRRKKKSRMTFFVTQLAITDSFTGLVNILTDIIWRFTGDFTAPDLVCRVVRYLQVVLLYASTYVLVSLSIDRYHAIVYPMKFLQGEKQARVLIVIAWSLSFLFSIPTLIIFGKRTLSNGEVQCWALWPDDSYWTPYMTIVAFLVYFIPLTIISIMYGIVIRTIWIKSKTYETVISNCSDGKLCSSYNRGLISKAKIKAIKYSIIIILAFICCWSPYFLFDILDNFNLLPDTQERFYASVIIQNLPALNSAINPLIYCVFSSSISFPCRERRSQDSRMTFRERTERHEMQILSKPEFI

TGR23-2 [2] = biological target: T1, TGR23-2; test: Measurement of antagonist activity: inhibition of TGR23 ligand-induced increase of Ca ion concentration in CHO cells expressing human TGR23-2 (FLIPR); type: cell-based
[3] = 1 nM Cy-5 labeled TGR23 ligand, 1 hour, read-out: IC50 value, concentration of the compound representing 50% of the binding inhibitory activity
[4] = 1 nM human TGR23 ligand, Fluo 3-AM, read-out: IC50 value, compound concentration inhibiting the increase of fluorescence intensity to 50%

SMILES	IC50 (TGR23-2 [1]; [3]) [nM]	IC50 (TGR23-2 [2]; [4]) [nM]	IC50 (TGR23-2 [1]; read-out: IC50 value, concentration of the compound representing 50% of the binding inhibitory activity, 1 nM Cy-5 labeled TGR23 ligand, 1 hour) [nM]	IC50 (TGR23-2 [2]; read-out: IC50 value, compound concentration inhibiting the increase of fluorescence intensity to 50%, 1 nM human TGR23 ligand, Fluo 3-AM) [nM]
O=C(NCCN1CCCCC1)N1CCN2C(=O)OC(c3ccccc3)(c3ccccc3)C2C1 (stereo not shown) [Example 80, Tetrahydro-3-oxo-1,1-diphenyl-N-[2-(1-piperidinyl)ethyl]-3H-oxazolo[3,4-a]pyrazine-7(1H)-carboxamide]	≤ 100	≤ 1000	–	–
O=C(CCCN1CCCC1)N1CCN2C(=O)OC(c3ccccc3)(c3ccccc3)C2C1 (stereo not shown) [Example 139, Hexahydro-7-[1-oxo-4-(1-pyrrolidinyl)butyl]-1,1-diphenyl-3H-oxazolo[3,4-a]pyrazin-7(1H)-3-one]	≤ 100	≤ 1000	–	–
O=C(CN1CC=CCC1)NC(=O)N1CCN2C(=O)OC(c3ccccc3)(c3ccccc3)C2C1 (stereo not shown) [Example 188, N-[2-(3,6-Dihydropyridin-1(2H)-yl)-1-oxoethyl]-tetrahydro-3-oxo-1,1-diphenyl-3H-oxazolo[3,4-a]pyrazine-7(1H)-carboxamide]	≤ 100	≤ 1000	–	–
COc1ccccc1OC(=O)N1CCN2C(=O)OC(c3ccccc3)(c3ccccc3)C2C1 (stereo not shown) [Example 18, (2-Methoxyphenyl)tetrahydro-3-oxo-1,1-diphenyl-3H-oxazolo[3,4-a]pyrazine-7(1H)-carboxylate]	≤ 100	≤ 1000	–	–
CCCN1CCC(C(=O)N2CCN3C(=O)OC(c4ccccc4)(c4ccccc4)C3C2)CC1 (stereo not shown) [Example 183, Hexahydro-1,1-diphenyl-7-[(1-propyl-4-piperidinyl)carbonyl]-3H-oxazolo[3,4-a]pyrazin-3-one]	≤ 100	≤ 1000	–	–
O=C1Cc2c(cccc2NC(=O)N2CCN3C(=O)OC(c4ccccc4)(c4ccccc4)C3C2)N1 (stereo not shown) [Example 129, N-(2,3-Dihydro-2-oxo-1H-indol-4-yl)-tetrahydro-3-oxo-1,1-diphenyl-3H-oxazolo[3,4-a]pyrazine-7(1H)-carboxamide]	≤ 100	≤ 1000	–	–
O=C(NCCCN1CCCCC1)N1CCN2C(=O)OC(c3ccccc3)(c3ccccc3)C2C1 (stereo not shown) [Example 90, Tetrahydro-3-oxo-1,1-diphenyl-N-[3-(1-piperidinyl)propyl]-3H-oxazolo[3,4-a]pyrazine-7(1H)-carboxamide]	≤ 100	≤ 1000	–	–
O=C(NC(CN1CCOCC1)c1ccccc1)N1CCN2C(=O)OC(c3ccccc3)(c3ccccc3)C2C1 (stereo not shown) [Example 150, Tetrahydro-N-[2-(4-morpholinyl)-1-phenylethyl]-3-oxo-1,1-diphenyl-3H-oxazolo[3,4-a]pyrazine-7(1H)-carboxamide]	≤ 100	≤ 1000	–	–
O=C(NCCN1CCCCC1)N1CCN2C(=O)OC(c3cccc(F)c3)(c3cccc(F)c3)C2C1 (stereo not shown) [Example 194, 1,1-Bis(3-fluorophenyl)-tetrahydro-3-oxo-N-[2-(1-piperidinyl)ethyl]-3H-oxazolo[3,4-a]pyrazine-7(1H)-carboxamide]	≤ 100	≤ 1000	–	–
O=C(NCCN1CCSCC1)N1CCN2C(=O)OC(c3ccccc3)(c3ccccc3)C2C1 (stereo not shown) [Example 89, Tetrahydro-3-oxo-1,1-diphenyl-N-[2-(4-thiomorpholinyl)ethyl]-3H-oxazolo[3,4-a]pyrazine-7(1H)-carboxamide]	≤ 100	≤ 1000	–	–
CC(C)(CN1CC=CCC1)NC(=O)N1CCN2C(=O)OC(c3ccccc3)(c3ccccc3)C2C1 (stereo not shown) [Example 187, N-[2-(3,6-Dihydropyridin-1(2H)-yl)-1,1-dimethylethyl]-tetrahydro-3-oxo-1,1-diphenyl-3H-oxazolo[3,4-a]pyrazine-7(1H)-carboxamide]	≤ 100	≤ 1000	–	–
O=C(c1ccccc1CN1CC=CCC1)N1CCN2C(=O)OC(c3ccccc3)(c3ccccc3)C2C1 (stereo not shown) [Example 154, 7-[2-(3,6-Dihydropyridin-1(2H)-ylmethyl)benzoyl]-hexahydro-1,1-diphenyl-3H-oxazolo[3,4-a]pyrazin-3-one]	≤ 100	≤ 1000	–	–
O=C(NCCCN1CC=CCC1)N1CCN2C(=O)OC(c3ccccc3)(c3ccccc3)C2C1 (stereo not shown) [Example 91, N-[3-(3,6-Dihydropyridin-1(2H)-yl)propyl]-tetrahydro-3-oxo-1,1-diphenyl-3H-oxazolo[3,4-a]pyrazine-7(1H)-carboxamide]	≤ 100	≤ 1000	–	–
O=C(NCCN1CC=CCC1)N1CCN2C(=O)OC(c3cccc(F)c3)(c3cccc(F)c3)C2C1 (stereo not shown) [Example 193, 1,1-Bis(3-fluorophenyl)-N-[2-(3,6-dihydropyridin-1(2H)-yl)ethyl]-tetrahydro-3-oxo-3H-oxazolo[3,4-a]pyrazine-7(1H)-carboxamide]	≤ 100	≤ 1000	–	–
O=C(Nc1csc2ccccc12)N1CCN2C(=O)OC(c3ccccc3)(c3ccccc3)C2C1 (stereo not shown) [Example 112, N-(Benzo[b]thien-3-yl)-tetrahydro-3-oxo-1,1-diphenyl-3H-oxazolo[3,4-a]pyrazine-7(1H)-carboxamide]	≤ 100	≤ 1000	–	–
O=C(NC1(CN2CC=CCC2)CC1)N1CCN2C(=O)OC(c3ccccc3)(c3ccccc3)C2C1 (stereo not shown) [Example 190, N-[1-[(3,6-Dihydropyridin-1(2H)-yl)methyl]cyclopropyl]-tetrahydro-3-oxo-1,1-diphenyl-3H-oxazolo[3,4-a]pyrazine-7(1H)-carboxamide]	≤ 100	≤ 1000	–	–
O=C(Nc1cccc(F)c1)N1CCN2C(=O)OC(c3ccccc3)(c3ccccc3)C2C1 (stereo not shown) [Example 21, N-(3-Fluorophenyl)-tetrahydro-3-oxo-1,1-diphenyl-3H-oxazolo[3,4-a]pyrazine-7(1H)-carboxamide]	≤ 100	≤ 1000	–	–
O=C(Nc1cccc2ccccc12)N1CCN2C(=O)OC(c3ccccc3)(c3ccccc3)C2C1 (stereo not shown) [Example 93, Tetrahydro-N-(1-naphthyl)-3-oxo-1,1-diphenyl-3H-oxazolo[3,4-a]pyrazine-7(1H)-carboxamide]	≤ 100	≤ 1000	–	–
O=C(CCCN1CCCCC1)N1CCN2C(=O)OC(c3ccccc3)(c3ccccc3)C2C1 (stereo not shown) [Example 133, Hexahydro-7-[1-oxo-4-(1-piperidinyl)butyl]-1,1-diphenyl-3H-oxazolo[3,4-a]pyrazin-7(1H)-3-one]	≤ 100	≤ 1000	–	–
CCN(CC)CCNC(=O)N1CCN2C(=O)OC(c3ccccc3)(c3ccccc3)C2C1 (stereo not shown) [Example 86, N-[2-(Diethylamino)ethyl]-tetrahydro-3-oxo-1,1-diphenyl-3H-oxazolo[3,4-a]pyrazine-7(1H)-carboxamide]	≤ 100	≤ 1000	–	–
O=C(Nc1ccccc1F)N1CCN2C(=O)OC(c3ccccc3)(c3ccccc3)C2C1 (stereo not shown) [Example 22, N-(2-Fluorophenyl)-tetrahydro-3-oxo-1,1-diphenyl-3H-oxazolo[3,4-a]pyrazine-7(1H)-carboxamide]	≤ 100	≤ 1000	–	–
O=C(CCCCN1CCOCC1)N1CCN2C(=O)OC(c3ccccc3)(c3ccccc3)C2C1 (stereo not shown) [Example 132, Hexahydro-7-[5-(4-morpholinyl)-1-oxopentyl]-1,1-diphenyl-3H-oxazolo[3,4-a]pyrazin-7(1H)-3-one]	≤ 100	≤ 1000	–	–
O=C(CCCCN1CC=CCC1)N1CCN2C(=O)OC(c3ccccc3)(c3ccccc3)C2C1 (stereo not shown) [Example 137, 7-[5-(3,6-Dihydropyridin-1(2H)-yl)-1-oxopentyl]-hexahydro-1,1-diphenyl-3H-oxazolo[3,4-a]pyrazin-7(1H)-3-one]	≤ 100	≤ 1000	–	–
O=C1NC(NC(=O)N2CCN3C(=O)OC(c4ccccc4)(c4ccccc4)C3C2)c2ccccc21 (stereo not shown) [Example 117, N-(2,3-Dihydro-3-oxo-1H-isoindol-1-yl)-tetrahydro-3-oxo-1,1-diphenyl-3H-oxazolo[3,4-a]pyrazine-7(1H)-carboxamide]	≤ 100	≤ 1000	–	–
O=C(NCc1ccc(F)cc1)N1CCN2C(=O)OC(c3ccc(F)cc3)(c3ccc(F)cc3)C2C1 (stereo not shown) [Example 61, 1,1-Bis(4-fluorophenyl)-N-[(4-fluorophenyl)methyl]-tetrahydro-3-oxo-3H-oxazolo[3,4-a]pyrazine-7(1H)-carboxamide]	–	–	≤ 100	≤ 1000
O=C(NCCN1CC=CCC1)N1CCN2C(=O)OC(c3ccccc3)(c3ccccc3)C2C1 (single isomer, unassigned; (+)) [Example 201, (+)-N-[2-(3,6-Dihydropyridin-1(2H)-yl)ethyl]-tetrahydro-3-oxo-1,1-diphenyl-3H-oxazolo[3,4-a]pyrazine-7(1H)-carboxamide]	≤ 100	≤ 1000	–	–
CCOC(=O)NC(=O)N1CCN2C(=O)OC(c3ccccc3)(c3ccccc3)C2C1 (stereo not shown) [Example 92, Ethyl [(tetrahydro-3-oxo-1,1-diphenyl-3H-oxazolo[3,4-a]pyrazin-7(1H)-yl)carbonyl]carbamate]	≤ 100	≤ 1000	–	–
C=CCNCCNC(=O)N1CCN2C(=O)OC(c3ccccc3)(c3ccccc3)C2C1 (stereo not shown) [Example 175, Tetrahydro-3-oxo-1,1-diphenyl-N-[2-[(2-propenyl)amino]ethyl]-3H-oxazolo[3,4-a]pyrazine-7(1H)-carboxamide hydrochloride]	≤ 100	≤ 1000	–	–
O=C(OCCN1CC=CCC1)N1CCN2C(=O)OC(c3ccccc3)(c3ccccc3)C2C1 (stereo not shown) [Example 184, [2-(3,6-Dihydropyridin-1(2H)-yl)ethyl]tetrahydro-3-oxo-1,1-diphenyl-3H-oxazolo[3,4-a]pyrazine-7(1H)-carboxylate]	≤ 100	≤ 1000	–	–
